Assay results as given in paper PMC13318124.
These are yes or no findings as the source states them, for the method shown. Binding seen in cells or lysates may run through a third protein. Some binding calls cover weakened binding; strength is not graded here.

Sequences of proteins named here, by UniProt entry; tags and fusion partners are left off. Residues count along the entry.
UniProt O35516, residues 26-2473: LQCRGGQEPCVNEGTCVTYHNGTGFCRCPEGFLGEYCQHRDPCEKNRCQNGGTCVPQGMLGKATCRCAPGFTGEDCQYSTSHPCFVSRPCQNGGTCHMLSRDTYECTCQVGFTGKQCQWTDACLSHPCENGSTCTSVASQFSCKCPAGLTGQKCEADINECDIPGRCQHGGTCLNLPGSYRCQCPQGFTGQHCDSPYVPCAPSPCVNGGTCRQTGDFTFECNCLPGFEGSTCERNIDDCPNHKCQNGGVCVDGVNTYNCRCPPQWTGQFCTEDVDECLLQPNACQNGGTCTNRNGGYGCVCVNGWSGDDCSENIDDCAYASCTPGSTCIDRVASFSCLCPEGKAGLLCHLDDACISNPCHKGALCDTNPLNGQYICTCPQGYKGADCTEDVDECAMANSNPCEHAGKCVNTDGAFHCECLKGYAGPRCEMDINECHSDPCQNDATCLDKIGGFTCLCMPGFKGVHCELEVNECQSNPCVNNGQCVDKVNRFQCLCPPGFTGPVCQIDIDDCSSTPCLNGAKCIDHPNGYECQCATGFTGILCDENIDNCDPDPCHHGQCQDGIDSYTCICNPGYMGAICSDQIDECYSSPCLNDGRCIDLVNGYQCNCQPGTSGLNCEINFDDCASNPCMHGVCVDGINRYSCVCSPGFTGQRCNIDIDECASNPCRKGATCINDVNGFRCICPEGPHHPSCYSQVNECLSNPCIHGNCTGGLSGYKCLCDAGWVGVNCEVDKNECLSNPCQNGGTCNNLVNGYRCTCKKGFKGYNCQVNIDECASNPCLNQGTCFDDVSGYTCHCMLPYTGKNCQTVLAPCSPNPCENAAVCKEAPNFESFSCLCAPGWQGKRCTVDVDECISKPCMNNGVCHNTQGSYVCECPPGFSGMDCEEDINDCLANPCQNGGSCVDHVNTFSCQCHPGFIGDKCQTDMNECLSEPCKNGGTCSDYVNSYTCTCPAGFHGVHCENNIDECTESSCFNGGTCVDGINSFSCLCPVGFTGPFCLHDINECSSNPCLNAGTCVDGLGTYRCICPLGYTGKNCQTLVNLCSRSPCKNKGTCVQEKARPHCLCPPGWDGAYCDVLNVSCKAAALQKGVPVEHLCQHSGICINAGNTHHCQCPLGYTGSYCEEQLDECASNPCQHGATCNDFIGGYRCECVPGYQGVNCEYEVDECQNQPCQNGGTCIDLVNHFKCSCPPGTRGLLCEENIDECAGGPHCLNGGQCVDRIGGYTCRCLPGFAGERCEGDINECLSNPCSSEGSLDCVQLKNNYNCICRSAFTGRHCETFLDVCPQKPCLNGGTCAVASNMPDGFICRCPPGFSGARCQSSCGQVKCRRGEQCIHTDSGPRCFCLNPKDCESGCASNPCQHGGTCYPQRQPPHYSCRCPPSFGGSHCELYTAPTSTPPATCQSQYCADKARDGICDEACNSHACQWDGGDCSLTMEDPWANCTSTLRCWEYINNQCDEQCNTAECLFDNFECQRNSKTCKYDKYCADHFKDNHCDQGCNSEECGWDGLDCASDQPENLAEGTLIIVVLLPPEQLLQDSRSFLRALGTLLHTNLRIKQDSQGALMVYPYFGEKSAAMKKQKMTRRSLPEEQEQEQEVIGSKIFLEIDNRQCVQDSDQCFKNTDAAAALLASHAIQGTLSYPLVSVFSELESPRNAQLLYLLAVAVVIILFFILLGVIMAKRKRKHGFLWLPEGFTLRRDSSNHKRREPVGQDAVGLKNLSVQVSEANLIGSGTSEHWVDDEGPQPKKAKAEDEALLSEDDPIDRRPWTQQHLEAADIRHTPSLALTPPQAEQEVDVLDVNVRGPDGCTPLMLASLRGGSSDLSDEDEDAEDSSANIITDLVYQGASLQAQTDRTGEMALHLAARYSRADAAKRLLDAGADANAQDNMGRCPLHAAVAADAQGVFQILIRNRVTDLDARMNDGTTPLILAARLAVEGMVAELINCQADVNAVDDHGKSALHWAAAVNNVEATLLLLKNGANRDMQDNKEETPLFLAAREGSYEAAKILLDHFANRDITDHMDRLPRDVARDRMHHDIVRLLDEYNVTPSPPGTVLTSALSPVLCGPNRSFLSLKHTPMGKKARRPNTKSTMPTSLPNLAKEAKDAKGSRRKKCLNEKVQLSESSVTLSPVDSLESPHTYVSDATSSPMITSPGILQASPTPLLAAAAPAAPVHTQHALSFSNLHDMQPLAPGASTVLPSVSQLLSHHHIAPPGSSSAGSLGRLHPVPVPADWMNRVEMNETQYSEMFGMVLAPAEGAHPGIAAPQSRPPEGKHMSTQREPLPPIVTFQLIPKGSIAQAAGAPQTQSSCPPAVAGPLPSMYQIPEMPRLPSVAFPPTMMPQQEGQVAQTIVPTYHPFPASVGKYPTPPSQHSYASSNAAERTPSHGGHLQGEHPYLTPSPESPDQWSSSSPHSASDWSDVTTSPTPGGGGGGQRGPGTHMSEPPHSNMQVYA
UniProt Q61982, residues 40-2318: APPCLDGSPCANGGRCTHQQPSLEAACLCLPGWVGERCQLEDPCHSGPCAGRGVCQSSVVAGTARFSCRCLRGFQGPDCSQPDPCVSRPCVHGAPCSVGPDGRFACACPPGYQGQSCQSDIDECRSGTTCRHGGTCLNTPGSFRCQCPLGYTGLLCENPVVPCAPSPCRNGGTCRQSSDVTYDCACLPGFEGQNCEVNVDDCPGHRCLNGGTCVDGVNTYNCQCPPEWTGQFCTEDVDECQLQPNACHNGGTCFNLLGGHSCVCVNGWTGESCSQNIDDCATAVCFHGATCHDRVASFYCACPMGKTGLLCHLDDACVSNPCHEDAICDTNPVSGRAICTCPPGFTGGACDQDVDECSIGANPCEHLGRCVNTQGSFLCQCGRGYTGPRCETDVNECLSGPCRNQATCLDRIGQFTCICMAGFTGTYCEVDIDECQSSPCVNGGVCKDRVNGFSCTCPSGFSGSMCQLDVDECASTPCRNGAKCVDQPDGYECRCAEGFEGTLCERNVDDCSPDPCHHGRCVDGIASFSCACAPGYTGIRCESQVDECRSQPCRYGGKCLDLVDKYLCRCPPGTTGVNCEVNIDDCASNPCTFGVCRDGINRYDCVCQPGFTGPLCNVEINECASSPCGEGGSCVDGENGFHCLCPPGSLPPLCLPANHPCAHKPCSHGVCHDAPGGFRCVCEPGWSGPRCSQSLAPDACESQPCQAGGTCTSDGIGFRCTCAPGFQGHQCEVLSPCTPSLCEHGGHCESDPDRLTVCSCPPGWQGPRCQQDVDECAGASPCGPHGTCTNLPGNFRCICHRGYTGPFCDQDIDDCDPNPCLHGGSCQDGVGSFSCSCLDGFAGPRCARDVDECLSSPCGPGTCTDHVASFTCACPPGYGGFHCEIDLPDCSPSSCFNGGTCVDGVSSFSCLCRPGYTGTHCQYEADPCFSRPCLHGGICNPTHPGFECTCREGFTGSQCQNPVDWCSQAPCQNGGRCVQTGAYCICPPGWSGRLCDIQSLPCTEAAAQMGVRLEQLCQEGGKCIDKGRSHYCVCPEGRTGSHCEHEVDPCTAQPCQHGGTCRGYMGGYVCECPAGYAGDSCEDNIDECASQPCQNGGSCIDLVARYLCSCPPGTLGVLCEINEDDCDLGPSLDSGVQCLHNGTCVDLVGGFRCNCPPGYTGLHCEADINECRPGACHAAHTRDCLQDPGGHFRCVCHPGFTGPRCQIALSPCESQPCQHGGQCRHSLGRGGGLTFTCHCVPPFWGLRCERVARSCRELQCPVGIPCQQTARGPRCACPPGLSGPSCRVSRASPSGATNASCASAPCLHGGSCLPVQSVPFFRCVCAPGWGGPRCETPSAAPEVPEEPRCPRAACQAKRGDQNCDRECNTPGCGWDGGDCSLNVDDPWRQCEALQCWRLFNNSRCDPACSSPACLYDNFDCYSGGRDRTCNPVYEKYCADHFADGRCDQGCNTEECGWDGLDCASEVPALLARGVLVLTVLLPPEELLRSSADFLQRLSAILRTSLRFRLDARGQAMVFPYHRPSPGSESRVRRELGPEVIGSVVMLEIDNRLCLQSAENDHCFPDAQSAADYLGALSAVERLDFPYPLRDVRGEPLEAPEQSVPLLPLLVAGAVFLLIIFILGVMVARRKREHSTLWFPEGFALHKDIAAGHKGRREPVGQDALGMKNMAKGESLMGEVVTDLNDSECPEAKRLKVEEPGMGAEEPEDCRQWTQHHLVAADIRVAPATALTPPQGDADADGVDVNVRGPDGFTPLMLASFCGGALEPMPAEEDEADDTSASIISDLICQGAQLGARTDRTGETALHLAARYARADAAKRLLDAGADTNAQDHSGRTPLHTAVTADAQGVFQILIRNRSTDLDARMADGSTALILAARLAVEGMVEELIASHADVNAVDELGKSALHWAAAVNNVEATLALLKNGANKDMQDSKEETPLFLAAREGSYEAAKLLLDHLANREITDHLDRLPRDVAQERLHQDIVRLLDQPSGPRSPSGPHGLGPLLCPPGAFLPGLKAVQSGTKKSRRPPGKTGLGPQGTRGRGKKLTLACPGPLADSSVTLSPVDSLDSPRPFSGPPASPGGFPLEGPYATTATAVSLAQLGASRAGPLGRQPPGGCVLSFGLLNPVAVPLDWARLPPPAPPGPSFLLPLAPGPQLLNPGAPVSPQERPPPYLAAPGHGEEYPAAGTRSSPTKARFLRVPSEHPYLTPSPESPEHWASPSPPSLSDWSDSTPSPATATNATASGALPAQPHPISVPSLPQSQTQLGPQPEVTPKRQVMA
UniProt Q9QYE5, residues 24-1247: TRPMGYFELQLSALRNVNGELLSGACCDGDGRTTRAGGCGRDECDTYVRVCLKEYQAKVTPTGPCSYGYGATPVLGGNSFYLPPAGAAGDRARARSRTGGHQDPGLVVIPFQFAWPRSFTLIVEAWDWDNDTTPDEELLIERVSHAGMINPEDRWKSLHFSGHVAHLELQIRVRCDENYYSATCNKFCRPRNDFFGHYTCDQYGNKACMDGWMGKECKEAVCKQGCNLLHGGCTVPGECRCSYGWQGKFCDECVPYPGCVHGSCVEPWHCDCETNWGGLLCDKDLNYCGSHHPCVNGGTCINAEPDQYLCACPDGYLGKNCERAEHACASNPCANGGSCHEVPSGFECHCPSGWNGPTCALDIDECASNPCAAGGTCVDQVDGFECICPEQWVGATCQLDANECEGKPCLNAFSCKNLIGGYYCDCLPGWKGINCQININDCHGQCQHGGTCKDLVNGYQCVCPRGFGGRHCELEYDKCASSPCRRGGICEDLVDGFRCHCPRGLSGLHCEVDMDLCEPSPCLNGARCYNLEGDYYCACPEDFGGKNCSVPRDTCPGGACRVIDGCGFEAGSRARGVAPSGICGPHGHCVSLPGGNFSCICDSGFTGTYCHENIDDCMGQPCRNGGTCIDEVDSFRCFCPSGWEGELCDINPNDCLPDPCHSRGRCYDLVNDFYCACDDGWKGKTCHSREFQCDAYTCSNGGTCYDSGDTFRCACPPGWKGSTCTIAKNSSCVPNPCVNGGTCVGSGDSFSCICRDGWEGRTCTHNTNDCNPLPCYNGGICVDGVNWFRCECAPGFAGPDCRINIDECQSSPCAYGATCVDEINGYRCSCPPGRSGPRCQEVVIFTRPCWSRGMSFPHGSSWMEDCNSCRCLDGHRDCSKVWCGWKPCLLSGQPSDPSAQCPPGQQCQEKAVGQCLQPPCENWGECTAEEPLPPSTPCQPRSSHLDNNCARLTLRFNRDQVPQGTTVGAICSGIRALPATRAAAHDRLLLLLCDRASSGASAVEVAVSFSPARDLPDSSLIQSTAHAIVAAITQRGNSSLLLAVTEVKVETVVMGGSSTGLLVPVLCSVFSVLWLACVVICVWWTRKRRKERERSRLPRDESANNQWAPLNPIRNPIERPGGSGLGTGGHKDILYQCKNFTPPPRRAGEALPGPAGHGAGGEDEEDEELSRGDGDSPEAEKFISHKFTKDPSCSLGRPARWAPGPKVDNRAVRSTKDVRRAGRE

Assays:
Test in all cases: proximity ligation; DuoLink in situ PLA in MuSCs fixed with 4% PFA and permeabilised with PBS + 0.2% Triton X-100; anti-JAG2 with anti-NOTCH1, anti-NOTCH2 or anti-NOTCH3 antibodies, anti-rabbit minus and anti-mouse plus probes; control without antibodies
[1] = target: NOTCH1, mouse, in muscle stem cells (MuSCs) (mouse (endogenous in MuSCs)) (UniProt Q01705)
[2] = target: NOTCH2, mouse, in muscle stem cells (MuSCs) (mouse (endogenous in MuSCs)) (UniProt O35516)
[3] = target: NOTCH3, mouse, in muscle stem cells (MuSCs) (mouse (endogenous in MuSCs)) (UniProt Q61982)

Measured: binding

JAG2 (JAGGED2), mouse, in muscle stem cells (MuSCs) (from UniProt Q9QYE5 24-1247) (ligand)
binds: all assays above
